Source: publication PMC7925594
No constants are given. Whether binding was seen depends on the method and setting. In cells and extracts the contact can be indirect. Binding can be weak; no strength is given. Where a sequence is shown, tags or fusion partners need not be part of it.

Molecular target: Flag-NEMO coil zipper (COZI) domain
Assay: co-IP; HEK293T or N4BP1-/- HEK293T cells co-transfected with HA-N4BP1 (or deletion mutants) and Flag-NEMO (or deletion mutants); NP-40 lysis buffer; immunoprecipitation and immunoblot

B1: HA-tagged N4BP1 (full-length) (protein, UniProt O75113 1-896)
chain: MAARAVLDEFTAPAEKAELLEQSRGRIEGLFGVSLAVLGALGAEEPLPARIWLQLCGAQEAVHSAKEYIKGICEPELEERECYPKDMHCIFVGAESLFLKSLIQDTCADLCILDIGLLGIRGSAEAVVMARSHIQQFVKLFENKENLPSSQKESEVKREFKQFVEAHADNYTMDLLILPTSLKKELLTLTQGEENLFETGDDEVIEMRDSQQTEFTQNAATGLNISRDETVLQEEARNKAGTPVSELTKQMDTVLSSSPDVLFDPINGLTPDEEALSNERICQKRRFSDSEERHTKKQFSLENVQEGEILHDAKTLAGNVIADLSDSSADSENLSPDIKETTEEMEYNILVNFFKTMGYSQEIVEKVIKVYGPSTEPLLLLEEIEKENKRFQEDREFSAGTVYPETNKTKNKGVYSSTNELTTDSTPKKTQAHTQQNMVEKFSQLPFKVEAKPCTSNCRINTFRTVPIEQKHEVWGSNQNYICNTDPETDGLSPSVASPSPKEVNFVSRGASSHQPRVPLFPENGLHQQPEPLLPNNMKSACEKRLGCCSSPHSKPNCSTLSPPMPLPQLLPSVTDARSAGPSDHIDSSVTGVQRFRDTLKIPYKLELKNEPGRTDLKHIVIDGSNVAITHGLKKFFSCRGIAIAVEYFWKLGNRNITVFVPQWRTRRDPNVTEQHFLTQLQELGILSLTPARMVFGERIASHDDRFLLHLADKTGGIIVTNDNFREFVNESVSWREIITKRLLQYTFVGDIFMVPDDPLGRSGPRLEEFLQKEVCLRDMQPLLSALPNVGMFDPSFRVPGTQAASTSHQPPTRIQGAPSSHWLPQQPHFPLLPALPSLQQNLPMPAQRSSAETNELREALLKIFPDSEQRLKIDQILVAHPYMKDLNALSAMVLD
binding: binds
